Experimental findings from patent US10435388B2, “Selective inhibitors of clinically important mutants of the EGFR tyrosine kinase” (CS PHARMATECH LIMITED, priority 2016, dated 2019) are described below.

By UniProt entry, the sequences of proteins in these tests, tags left out. Residues count along the entry.
UniProt P08069, 959-1367 limits assumed: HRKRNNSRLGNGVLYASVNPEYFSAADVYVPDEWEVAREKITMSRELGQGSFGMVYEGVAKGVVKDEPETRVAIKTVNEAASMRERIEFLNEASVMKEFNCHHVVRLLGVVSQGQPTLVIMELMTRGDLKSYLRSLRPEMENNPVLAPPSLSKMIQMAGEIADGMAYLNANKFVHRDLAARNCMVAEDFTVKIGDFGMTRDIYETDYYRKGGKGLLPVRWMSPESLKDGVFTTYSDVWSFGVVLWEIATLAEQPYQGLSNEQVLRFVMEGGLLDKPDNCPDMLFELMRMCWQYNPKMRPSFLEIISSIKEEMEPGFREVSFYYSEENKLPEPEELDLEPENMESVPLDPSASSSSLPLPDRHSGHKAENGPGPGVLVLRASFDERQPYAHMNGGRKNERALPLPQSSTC

A number of entries come with more than one value. The other results are left out here. There may be further records. For some of these results: The values listed for one entry seem to repeat one measurement on other runs, samples or individuals. For some of these results: The records of an entry appear to be repeats (runs, samples, wells or individuals); one of them may be the mean.

One experiment concerns the target IGF-1R (Homo sapiens, UniProt P08069). Briefly: IGF-1R inhibition assay (Caliper EZ Reader). Particulars: read-out: IC50 (nM) IGF-1R; enzyme assay.
The test system of a further experiment is A431 cells (WT). As to the kind of experiment: A431 inhibition assay (cell proliferation), Method B. The following applies: read-out: WT (A431) IC50 nM, cellular proliferation, 72 h, several runs.
The test system of the next experiment is H1975 cells (DM). As to the kind of experiment: H1975 inhibition assay (cell proliferation), Method B. It is filed as cell-based. Particulars: read-out: DM (H1975) IC50 nM, cellular proliferation, 72 h, several runs.
The next experiment deals with PC9 cells (SM). As to the kind of experiment: PC-9 growth inhibition assay (cell proliferation), Method B. The following applies: read-out: SM (PC9) IC50 nM, cellular proliferation, 72 h, several runs.

Take `C=CC(=O)Nc1cc(Nc2nccc(-c3c[nH]c4ccccc34)n2)c(OC)cc1N(C)CCN(C)C` [AZD-5104]: the IC50 was 35.8 nM and 75.7 nM on IGF-1R; 42, 199, 123, 47.8, 33.4, 80.6, 79.2, 62.5, 415, 48.7, 34.9 nM in the experiment on A431 cells (WT); 3.76, 11.8, 3.66, 3.2, 5.6, 3.31, 3.28, 5.03, 9.95, 3.27, 1.77 nM in the experiment on H1975 cells (DM); 5.31, 4.8, 2.25, 2.65, 2.61, 1.81, 3.8, 6.22, 3.65 nM in the experiment on PC9 cells (SM).
